Results are given in words; binding and its absence hold for the method and conditions named. Binding seen in cells or lysates may run through a third protein. Some binding calls cover weakened binding; strength is not graded here. Tags and fused reporters may be left off the sequences shown.
Key:
[1] = molecular target: T1, Uncoupling protein-4 (UCP4), FLAG-tagged (human) (UniProt O95847); test: co-IP; mitochondrial lysate (500 ug) of UCP4-overexpressing SH-SY5Y cells in native lysis buffer, pre-cleared with Protein-G-sepharose; IP with anti-FLAG or anti-Complex II subunit Fp overnight at 4 C, Protein-G-sepharose 1 h; washed with Tris buffer pH 7.2 with 0.01% Tween 20; western blot with anti-FLAG or anti-Fp
T1 sequence: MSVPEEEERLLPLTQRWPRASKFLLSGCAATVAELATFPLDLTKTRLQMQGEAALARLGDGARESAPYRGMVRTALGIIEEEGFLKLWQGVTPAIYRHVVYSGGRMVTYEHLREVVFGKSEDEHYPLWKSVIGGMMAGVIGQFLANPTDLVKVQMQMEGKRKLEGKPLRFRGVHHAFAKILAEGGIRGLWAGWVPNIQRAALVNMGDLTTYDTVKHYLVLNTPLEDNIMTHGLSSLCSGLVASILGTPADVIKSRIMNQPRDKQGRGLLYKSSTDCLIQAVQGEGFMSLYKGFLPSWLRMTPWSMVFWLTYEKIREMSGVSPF

By UniProt entry, the sequences of proteins in these tests, tags left out. Residues count along the entry.
UniProt P31040, residues 43-664: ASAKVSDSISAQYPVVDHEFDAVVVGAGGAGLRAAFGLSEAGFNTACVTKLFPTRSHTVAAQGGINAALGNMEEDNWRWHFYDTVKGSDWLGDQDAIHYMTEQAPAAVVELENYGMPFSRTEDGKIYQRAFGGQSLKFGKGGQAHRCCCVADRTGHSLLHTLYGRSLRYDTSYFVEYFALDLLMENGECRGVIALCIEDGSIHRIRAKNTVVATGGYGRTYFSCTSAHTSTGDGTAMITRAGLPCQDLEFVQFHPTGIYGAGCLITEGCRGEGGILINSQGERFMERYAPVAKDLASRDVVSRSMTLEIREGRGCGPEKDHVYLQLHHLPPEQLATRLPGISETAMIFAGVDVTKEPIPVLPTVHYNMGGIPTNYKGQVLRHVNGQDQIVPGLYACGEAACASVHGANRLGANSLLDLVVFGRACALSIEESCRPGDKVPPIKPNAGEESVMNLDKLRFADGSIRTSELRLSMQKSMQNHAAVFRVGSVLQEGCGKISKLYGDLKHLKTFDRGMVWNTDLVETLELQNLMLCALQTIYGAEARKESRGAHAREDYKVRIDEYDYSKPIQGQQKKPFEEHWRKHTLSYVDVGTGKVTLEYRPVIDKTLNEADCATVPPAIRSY

[2] = molecular target: Mitochondrial Complex II subunit Fp (70 kDa) (human (endogenous in SH-SY5Y)) (UniProt P31040); test: as above

Question: How did the binding [1] turn out when “Mitochondrial Complex II subunit Fp (70 kDa) (from UniProt P31040 43-664)” was run?
Answer: The binding was “binds”.

B1: Uncoupling protein-4 (UCP4), FLAG-tagged (protein, UniProt O95847 1-323)
chain: T1 sequence
Question: How did the binding [2] turn out when B1 was run?
Answer: Its binding is “binds”.
